From paper PMC10603047
These are yes or no findings as the source states them, for the method shown. Binding seen in cells or lysates may run through a third protein. Some results given as binding are weak or reduced against the parent protein; the word gives no strength.

Biological target: T1, Trim21 (mouse (endogenous in MC3T3-E1)) (UniProt Q62191)
T1 sequence: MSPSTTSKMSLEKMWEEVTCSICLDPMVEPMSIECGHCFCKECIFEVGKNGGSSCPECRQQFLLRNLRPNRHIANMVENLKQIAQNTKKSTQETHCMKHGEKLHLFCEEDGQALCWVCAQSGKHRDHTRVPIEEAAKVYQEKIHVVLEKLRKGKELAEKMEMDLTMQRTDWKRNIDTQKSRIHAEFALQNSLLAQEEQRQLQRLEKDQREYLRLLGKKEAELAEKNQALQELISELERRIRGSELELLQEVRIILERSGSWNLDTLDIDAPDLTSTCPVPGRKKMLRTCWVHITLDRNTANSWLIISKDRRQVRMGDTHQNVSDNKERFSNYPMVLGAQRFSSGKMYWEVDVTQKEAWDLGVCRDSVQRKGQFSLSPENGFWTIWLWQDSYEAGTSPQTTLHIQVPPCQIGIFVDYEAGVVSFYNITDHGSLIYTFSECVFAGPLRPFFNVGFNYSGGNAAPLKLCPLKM
Experiment: co-IP; endogenous proteins of MC3T3-E1 cells with or without osteogenic induction; lysed by sonication in Western and IP Lysis Buffer; antibodies against YAP1, BCL9, Trim21 or control IgG overnight at 4 °C, protein A agarose, five washes, immunoblotting

B1: BCL9 (protein, UniProt Q9D219 1-1425)
chain: MHPSNPKVRSSPSGNTQSSPKSKQEVMVRPPTVMSPSGNPQLDSKFSNQGKPGGSASQSQPSPCDSKSGGHTPKALPGPGGSMGLKNGAGNGAKGKGKRERSISADSFDQRDPGTPNDDSDIKECNSADHIKSQESQHTPHSMTPSTATAPRSSTPSHGQTPAPEPISAQKTPAKVVYVFSTEMANKAAEAVLKGQVETIVSFHIQNISNSKSERSTAPLNTQIPTLRNDPKPLPQQPPAPANQDQNSSQNARLQPTPPIQAPAPKPTAAPRPLDRESPGVENKLIPPVGSPGSSTPLPPDGTGPNSTPNNRAVTPVSQGSNSSSADPKAPPPPPVSGGEPPTLGENPDGLSQEQLEHRERSLQTLRDIQRMLFPDEKEFTAGQTGGPQQNTGVLDGPQKKPDGPIQAMMSQSQSLGKGPGPRTDVGAPFGPQGHRDVPFSPDEMVPPNMSSQSGPIGPDHLDHMTPEQIAWLKLQQEFYEEKRRKQEQVVVQQCSLQDMMVHQHGPRGVVRGPPPPYQMAPGEGWAPGAEPFPDGINISHSLPPRGMAPHPNMPGSQMRLPGFAGMINSEMEGPNVPNPASRPGLSGVSWPDDVPKIPDGRNFPPGQGVFSGPGRGERFPNPQGLSEEMFQQQLAEKQLALPPGMSMEGIRPGMEMNRMIPGSQRHMEPGSNPIFPRIPVEGPLSPSRGDFPKGMPPQIGPGRELEFGMVPGGMKGEVNLNVNMGSSSQMIPQKMREAGAGPEEMMKLRPGSSEMLPAQQKMVPLPFGEHPQQEYGVGPRPFLPMSQGPGSNSGLRNLREPIGPDQRTNSRLSHMPPLPLNPSSNPTSLSTAPPVQRGLGRKPLDISVAGSQVHSPGINPLKSPTMHQVQSPMLGSPSGNLKSPQTPSQLAGMLAGPAAAASIKSPPVLGSAAASPVHLKSPSLPAPSPGWTSSPKPPLQSPGIPPNHKAPLTMASPAMLGSVESGGPPPPTASQPASVNIPGSLPSSTPYPMPPEPTLSQNPLSIMMSRMSKFAMPSSTPLYHDAIKTVASSDDDSPPARSPNLPSMNSMPGMGINTQNPRISGPNPVVPMPTLSPMGMTQPLSHSNQMPSPNAMGPSIPPHGVPMGPGLMSHNPIMGHGSQEPPMVPQGRMGFPQGFPPVQSPPQQVPFPHNGPTGGQGNFPGGIGFPGEGPLGRPSNLPQSSADPALCKPGGPGAPDSFTVLGNSMPSVFTDPDLQEVIRPGATGIPEFDLSRIIPSEKPSQTLQYFPRGEVPGRKQPQGPGPGFSHMQGMMSDQAPRMGLALPGMGGPGPVGTPDIPLGTSPSMPGHNPMRPPAFLQQGMMGPHHRMMSPAQSTVPGPATLMTNPAAAVGMIPGKDRGPAGLYTHPGPVGSPGMMMSMQGMMGPQQNIMIPPQMRPRGMAADVGMGGFSQGPGNPGNMMF
binding: binds
